This series in a line: Blood glucose during the PET session (experiment 1). In kind it is in vivo, rat. As to conditions: mean (SD).
The mark [1] stands for this setting: T1, baseline at the time of the first injection (t = 0 min).
[2] abbreviates: T2, at the time of [18F]FDG injection (t + 25 min).
The mark [3] stands for this setting: T3, before start of PET scan (t + 70 min).

With `CN(C)CCc1c[nH]c2ccccc12` [DMT, N,N-dimethyltryptamine], the Plasma glucose concentration under setting [1] is on record as 6.17 (0.54) mmol/L, the Plasma glucose concentration under setting [2] is reported as 5.87 (0.65) mmol/L and the Plasma glucose concentration under setting [3] is recorded as 6.33 (0.6) mmol/L.

As to `COc1ccc2c(c1)[nH]c1c(C)nccc12` [harmine], the Plasma glucose concentration reads like this: under setting [1], 6.55 (0.73) mmol/L; under setting [2], 6.97 (0.7) mmol/L; under setting [3], 5.95 (0.91) mmol/L.

Values taken from paper PMC10568461, “A pilot study of cerebral metabolism and serotonin 5-HT2A receptor occupancy in rats treated with the psychedelic tryptamine DMT in conjunction with the MAO inhibitor harmine” (Frontiers in Pharmacology, 2023).
